Taken from: PubChem BioAssay AID720703 (Peter MacCallum Cancer Centre, 2013)

- Screen: 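Which kinases alter ERK activation once AT1R is stimulated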 (primary screen)
- System: immortalised, SV40-transformed mammary epithelial cells from human, with stable expression of tagged AT1R
- Reagents: siRNA pool against human genes, 40 nM siRNA pool per well
- Time to read-out: 72 h from transfection to lysis and read-out
- Treatment: angiotensin II stimulation (dose and duration not given); EGFR inhibitor AG1478 also listed
- Measured: 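ERK1/2 phosphorylation corrected for confluency, given as a robust z-score, mean over two replicate plates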
- Direction: phospho-ERK z-score: higher = more ERK phosphorylation after angiotensin II, relative to plate
- Active means: 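The 50 highest-ranked pools, at either end of the score, are marked as chosen for follow-up; the cut-off used is not reported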
- Calls: active = picked for secondary screen; inactive = not picked
Here is a random part of 714 reagents. Over the whole deposit, 50 (7%) are marked active. 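Chosen pools sit at both extremes, so both low and high scores count as candidates; some pools appear more than once.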 A number with no mark means an inactive call.

target gene	phospho-ERK z-score, replicate mean
DBF4	-1.52 (active)
MAP3K5	0.8
RELA	-1.04
PHKG2	-0.04
CAMK2G	-0.5
PI4KA	-1.43 (active)
PAK1	-0.75
XYLB	0.76
SRPK3	0.02
MAP3K8	3.02 (active)
CDK11B	0.51
GRK2	1.09
SLK	-1.12
GALK1	0.78
DGKD	-0.99
MASTL	1.58
MYO3A	1.48
PIP4K2C	-0.1
PGK2	0.1
SPEG	-0.75
UCKL1	-0.55
CASK	-1.05
PRKCA	0.48
PAK3	0.81
MVK	0.5
MOK	0.68
PRKAR1B	2.74
IKBKB	1.57
FASTK	0.35
PIK3R3	-0.07
MAP2K2	0.13
MARK3	-1
PAK5	-0.81
DGKH	4.97 (active)
CERT1	-0.84
MAP3K13	2.1
CDK9	-0.11
PFKFB3	-0.44
JAK2	-0.52
PDK3	0.37
MAP3K3	-0.36
MAP3K12	-0.7
PHKA1	-0.48
CSNK2B	3.42 (active)
DCLK3	0.35

Taken from above:
CSNK2B, phospho-ERK z-score, replicate mean → 3.42 (active)
Result for PRKAR1B under “phospho-ERK z-score, replicate mean”: 2.74
